In experiment [1] the target is T1, Receptor interacting protein serine/threonine kinase 4 (RIPK4) (human (endogenous in BGC-823 and AGS)) (UniProt P57078).
T1 sequence: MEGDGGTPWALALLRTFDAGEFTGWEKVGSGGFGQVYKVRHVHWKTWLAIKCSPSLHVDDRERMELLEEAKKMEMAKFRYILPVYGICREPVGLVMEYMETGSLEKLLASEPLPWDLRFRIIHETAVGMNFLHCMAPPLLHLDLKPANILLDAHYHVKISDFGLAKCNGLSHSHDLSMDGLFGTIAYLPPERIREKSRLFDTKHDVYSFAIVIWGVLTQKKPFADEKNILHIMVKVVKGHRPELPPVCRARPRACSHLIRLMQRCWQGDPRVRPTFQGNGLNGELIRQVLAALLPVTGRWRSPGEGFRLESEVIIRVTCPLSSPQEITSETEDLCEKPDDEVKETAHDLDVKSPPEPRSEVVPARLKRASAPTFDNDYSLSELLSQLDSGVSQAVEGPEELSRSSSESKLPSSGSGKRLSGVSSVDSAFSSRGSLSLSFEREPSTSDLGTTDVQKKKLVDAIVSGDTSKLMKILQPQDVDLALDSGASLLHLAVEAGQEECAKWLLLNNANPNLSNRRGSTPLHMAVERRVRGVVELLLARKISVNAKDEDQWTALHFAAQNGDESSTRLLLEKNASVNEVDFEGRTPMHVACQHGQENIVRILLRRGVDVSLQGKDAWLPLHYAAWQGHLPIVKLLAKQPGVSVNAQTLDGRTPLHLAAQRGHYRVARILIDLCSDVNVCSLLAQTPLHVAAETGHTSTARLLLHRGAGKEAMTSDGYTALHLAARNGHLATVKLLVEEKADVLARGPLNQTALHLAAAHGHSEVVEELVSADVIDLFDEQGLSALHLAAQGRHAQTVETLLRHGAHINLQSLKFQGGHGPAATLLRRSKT
As to the kind of experiment: co-IP; endogenous proteins, co-immunoprecipitation with anti-RIPK4 or anti-TRIM25 antibodies in BGC-823 cells; also in si-NC or si-1 (LINC01537 knock-down) BGC-823 cells.

Sequences of proteins named here, by UniProt entry; tags and fusion partners are left off.
UniProt Q14258: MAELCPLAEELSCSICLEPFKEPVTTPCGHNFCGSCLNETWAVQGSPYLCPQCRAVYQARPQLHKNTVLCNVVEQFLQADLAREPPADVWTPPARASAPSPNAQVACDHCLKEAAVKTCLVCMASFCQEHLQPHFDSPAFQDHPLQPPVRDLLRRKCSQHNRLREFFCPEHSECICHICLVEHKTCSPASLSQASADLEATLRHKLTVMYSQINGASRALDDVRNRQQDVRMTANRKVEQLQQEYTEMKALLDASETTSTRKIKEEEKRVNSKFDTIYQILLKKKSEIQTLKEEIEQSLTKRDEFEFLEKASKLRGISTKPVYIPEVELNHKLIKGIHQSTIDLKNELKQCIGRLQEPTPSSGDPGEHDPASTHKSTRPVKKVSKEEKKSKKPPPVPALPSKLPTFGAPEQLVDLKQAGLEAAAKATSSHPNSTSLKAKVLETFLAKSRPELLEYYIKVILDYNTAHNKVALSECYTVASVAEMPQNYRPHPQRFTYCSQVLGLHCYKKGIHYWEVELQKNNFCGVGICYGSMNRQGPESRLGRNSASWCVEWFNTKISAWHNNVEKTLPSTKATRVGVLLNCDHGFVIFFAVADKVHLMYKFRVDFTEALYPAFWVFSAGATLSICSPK

Experiment [2] addresses TRIM25 (human (endogenous in BGC-823 and AGS)) (UniProt Q14258). The description is as above.

No constants are given. Whether binding was seen depends on the method and setting. Binding seen in cells or lysates may run through a third protein. Some results given as binding are weak or reduced against the parent protein; the word gives no strength.

For the molecule TRIM25 (from UniProt Q14258 1-630), in experiment [1], the binding entry is listed as “binds”.

B1: Receptor interacting protein serine/threonine kinase 4 (RIPK4) (protein, UniProt P57078 1-832)
chain: MEGDGGTPWALALLRTFDAGEFTGWEKVGSGGFGQVYKVRHVHWKTWLAIKCSPSLHVDDRERMELLEEAKKMEMAKFRYILPVYGICREPVGLVMEYMETGSLEKLLASEPLPWDLRFRIIHETAVGMNFLHCMAPPLLHLDLKPANILLDAHYHVKISDFGLAKCNGLSHSHDLSMDGLFGTIAYLPPERIREKSRLFDTKHDVYSFAIVIWGVLTQKKPFADEKNILHIMVKVVKGHRPELPPVCRARPRACSHLIRLMQRCWQGDPRVRPTFQGNGLNGELIRQVLAALLPVTGRWRSPGEGFRLESEVIIRVTCPLSSPQEITSETEDLCEKPDDEVKETAHDLDVKSPPEPRSEVVPARLKRASAPTFDNDYSLSELLSQLDSGVSQAVEGPEELSRSSSESKLPSSGSGKRLSGVSSVDSAFSSRGSLSLSFEREPSTSDLGTTDVQKKKLVDAIVSGDTSKLMKILQPQDVDLALDSGASLLHLAVEAGQEECAKWLLLNNANPNLSNRRGSTPLHMAVERRVRGVVELLLARKISVNAKDEDQWTALHFAAQNGDESSTRLLLEKNASVNEVDFEGRTPMHVACQHGQENIVRILLRRGVDVSLQGKDAWLPLHYAAWQGHLPIVKLLAKQPGVSVNAQTLDGRTPLHLAAQRGHYRVARILIDLCSDVNVCSLLAQTPLHVAAETGHTSTARLLLHRGAGKEAMTSDGYTALHLAARNGHLATVKLLVEEKADVLARGPLNQTALHLAAAHGHSEVVEELVSADVIDLFDEQGLSALHLAAQGRHAQTVETLLRHGAHINLQSLKFQGGHGPAATLLRRSKT
As for B1, the binding result in experiment [2] is on record as “binds”.

The record behind these values is article PMC9657364.
